These are yes or no findings as the source states them, for the method shown. For some of these results: Binding seen in cells or lysates may run through a third protein. Some entries that bind do so weakly or less than the wild type.

Chains of the proteins cited; added tags and fusions are not shown. Lines headed by an entry give the natural chain unless they say otherwise; changes in a name come on top. Residues count along the entry.
UniProt P02730: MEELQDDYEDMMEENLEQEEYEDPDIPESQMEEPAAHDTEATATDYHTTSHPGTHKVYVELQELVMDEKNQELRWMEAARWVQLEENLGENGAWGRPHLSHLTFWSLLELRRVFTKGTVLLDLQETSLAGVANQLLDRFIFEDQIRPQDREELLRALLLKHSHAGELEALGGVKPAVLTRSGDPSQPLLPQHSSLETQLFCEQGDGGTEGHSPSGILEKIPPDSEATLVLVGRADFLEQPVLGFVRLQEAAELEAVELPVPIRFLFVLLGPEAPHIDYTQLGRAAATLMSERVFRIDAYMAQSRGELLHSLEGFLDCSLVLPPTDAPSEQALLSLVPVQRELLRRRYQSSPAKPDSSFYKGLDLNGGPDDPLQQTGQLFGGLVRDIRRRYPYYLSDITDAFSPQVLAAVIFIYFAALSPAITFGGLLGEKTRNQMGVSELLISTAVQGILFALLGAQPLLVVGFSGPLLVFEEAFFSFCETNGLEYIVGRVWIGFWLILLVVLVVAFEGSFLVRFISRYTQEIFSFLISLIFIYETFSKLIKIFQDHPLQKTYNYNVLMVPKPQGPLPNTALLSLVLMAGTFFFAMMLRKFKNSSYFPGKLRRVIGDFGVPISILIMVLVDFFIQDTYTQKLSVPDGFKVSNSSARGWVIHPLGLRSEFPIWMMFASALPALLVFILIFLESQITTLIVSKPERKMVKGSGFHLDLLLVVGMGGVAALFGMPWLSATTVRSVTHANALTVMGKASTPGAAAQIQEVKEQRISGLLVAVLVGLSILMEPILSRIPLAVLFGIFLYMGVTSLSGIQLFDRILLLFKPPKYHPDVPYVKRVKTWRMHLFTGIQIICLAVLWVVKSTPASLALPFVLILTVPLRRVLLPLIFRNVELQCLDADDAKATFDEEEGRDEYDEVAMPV
Band 3 (SLC4A1) residues 57-379, recombinant: residues 57-379 of P02730
Band 3 (SLC4A1) residues 350-391, recombinant: residues 350-391 of P02730

The values that follow come from article doi:10.1101/2025.11.29.691178.

For assay [1], the target named is Band 3 (SLC4A1), endogenous in human red blood cells (human (endogenous in RBCs)) (UniProt P02730). In words: cross-linking.
The target is the same in assay [2]. In words: proximity ligation.
Assay [3] concerns the target Band 3 (SLC4A1) residues 350-391, recombinant (human) (UniProt P02730). Briefly: cross-linking.
Assay [4] has as its target Band 3 (SLC4A1) residues 57-379, recombinant (human) (UniProt P02730). In words: cross-linking.

B1: biliverdin reductase B (BLVRB), endogenous in human red blood cells (enzyme, UniProt P30043 1-206)
chain: MAVKKIAIFGATGQTGLTTLAQAVQAGYEVTVLVRDSSRLPSEGPRPAHVVVGDVLQAADVDKTVAGQDAVIVLLGTRNDLSPTTVMSEGARNIVAAMKAHGVDKVVACTSAFLLWDPTKVPPRLQAVTDDHIRMHKVLRESGLKYVAVMPPHIGDQPLTGAYTVTLDGRGPSRVISKHDLGHFMLRCLTTDEYDGHSTYPSHQYQ
Turning to B1, the binding result in assay [1] and in assay [2] was “binds” in each case.

B2: human biliverdin reductase B (BLVRB), recombinant, full length (enzyme, UniProt P30043 1-206)
chain: B1 chain
For the molecule B2, the binding entry in assay [3] and in assay [4] was “no binding” each time.
